For some of these results: No signal at the amounts used counts as a negative. For some of these results: For at least one entry, the source does not settle the construct or the ends of the probe. For some of these results: Weaker means in comparison with the reference protein, sequence or condition of that experiment.
Key:
Assay in all cases: EMSA
[1] = target: acetylated RprY (Ac-CoA treated) (Porphyromonas gingivalis ATCC 33277) (UniProt B2RK10); conditions: reduced complex, EMSA: 50 mM Tris-HCl pH 8.0, 750 mM KCl, 2.5 mM EDTA, 0.5% Triton-X, 2.5% glycerol, 1 mM DTT (RprY dilution buffer), 20 ul, 30 min, room temperature, recombinant protein, protein details: His (pET22b), label: DIG, probe letters rebuilt from the primers and the genome
[2] = target: RprY (Porphyromonas gingivalis ATCC 33277) (UniProt B2RK10); conditions: EMSA: 50 mM Tris-HCl pH 8.0, 750 mM KCl, 2.5 mM EDTA, 0.5% Triton-X, 2.5% glycerol, 1 mM DTT (RprY dilution buffer), 20 ul, 30 min, room temperature, recombinant protein, protein details: His (pET22b), label: DIG, probe letters rebuilt from the primers and the genome
[3] = target: RprY treated with acetyl phosphate (phosphorylated) (Porphyromonas gingivalis ATCC 33277) (UniProt B2RK10); conditions: 10 uM RprY, increasing AcP, increased complex formation; EMSA: 50 mM Tris-HCl pH 8.0, 750 mM KCl, 2.5 mM EDTA, 0.5% Triton-X, 2.5% glycerol, 1 mM DTT (RprY dilution buffer), 20 ul, 30 min, room temperature; recombinant protein; protein details: His (pET22b); label: DIG; probe letters rebuilt from the primers and the genome
[4] = target: CobB (UniProt B2RGM8); conditions: CobB without RprY, no shifted complex; EMSA: 50 mM Tris-HCl pH 8.0, 750 mM KCl, 2.5 mM EDTA, 0.5% Triton-X, 2.5% glycerol, 1 mM DTT (RprY dilution buffer), 20 ul, 30 min, room temperature; recombinant protein; residues 1-234; label: DIG; probe letters rebuilt from the primers and the genome

ACTCTGCACAGGATGGGAGTGCTCGTAATGGCTTCTAAAGTGCTGATTTGCTACCTCTTATAGTTGGCAAACAGTGTAAAAACTTTCTTTCGATAAAGACCTGCGGAATATGGGTGCAAAAGGTCGGAAAAAACTATGTGGAAATTTTTCCTCAAATGCCTCCATACTTATAGGTATATATAGGGGAAAAAGCTACTTTTGCGACACAAATTGGAATAATAATTCTGTGTC (double strand) [nqrA promoter]
binding result ([1]; 10 uM RprY, increasing lower Ac-CoA concentrations): binds more weakly
binding result ([1]; Ac-CoA, without CobB): binds more weakly
binding result ([2]; 5-15 uM RprY, concentration dependent, excess unlabelled promoter competed): binds
binding result ([2]; Ac-CoA with CobB and NAD+ (deacetylation), shifted complexes): binds
binding result ([2]; unacetylated RprY with CobB present, complex not prevented): binds
binding result [3]: binds
binding result [4]: no binding
